Reference: patent publication US20080051336A1 (Janssen / Centocor, published 2008)
These are yes or no findings as the source states them, for the method shown. Some results given as binding are weak or reduced against the parent protein; the word gives no strength.

By UniProt entry, the sequences of proteins in these tests, tags left out. Where a name states a change or a piece, a line headed by the entry shows the natural chain unless it says otherwise.
UniProt Q8TDU9: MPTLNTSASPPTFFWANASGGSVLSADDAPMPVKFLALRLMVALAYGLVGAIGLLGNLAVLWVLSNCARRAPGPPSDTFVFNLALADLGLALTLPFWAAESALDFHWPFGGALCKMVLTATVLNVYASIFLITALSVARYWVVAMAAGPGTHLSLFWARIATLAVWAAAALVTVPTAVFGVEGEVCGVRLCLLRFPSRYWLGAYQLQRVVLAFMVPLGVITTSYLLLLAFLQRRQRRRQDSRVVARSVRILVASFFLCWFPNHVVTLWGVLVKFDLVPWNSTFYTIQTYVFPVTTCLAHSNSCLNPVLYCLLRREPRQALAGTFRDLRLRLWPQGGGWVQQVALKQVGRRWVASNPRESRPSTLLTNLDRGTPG
UniProt Q8WXD0: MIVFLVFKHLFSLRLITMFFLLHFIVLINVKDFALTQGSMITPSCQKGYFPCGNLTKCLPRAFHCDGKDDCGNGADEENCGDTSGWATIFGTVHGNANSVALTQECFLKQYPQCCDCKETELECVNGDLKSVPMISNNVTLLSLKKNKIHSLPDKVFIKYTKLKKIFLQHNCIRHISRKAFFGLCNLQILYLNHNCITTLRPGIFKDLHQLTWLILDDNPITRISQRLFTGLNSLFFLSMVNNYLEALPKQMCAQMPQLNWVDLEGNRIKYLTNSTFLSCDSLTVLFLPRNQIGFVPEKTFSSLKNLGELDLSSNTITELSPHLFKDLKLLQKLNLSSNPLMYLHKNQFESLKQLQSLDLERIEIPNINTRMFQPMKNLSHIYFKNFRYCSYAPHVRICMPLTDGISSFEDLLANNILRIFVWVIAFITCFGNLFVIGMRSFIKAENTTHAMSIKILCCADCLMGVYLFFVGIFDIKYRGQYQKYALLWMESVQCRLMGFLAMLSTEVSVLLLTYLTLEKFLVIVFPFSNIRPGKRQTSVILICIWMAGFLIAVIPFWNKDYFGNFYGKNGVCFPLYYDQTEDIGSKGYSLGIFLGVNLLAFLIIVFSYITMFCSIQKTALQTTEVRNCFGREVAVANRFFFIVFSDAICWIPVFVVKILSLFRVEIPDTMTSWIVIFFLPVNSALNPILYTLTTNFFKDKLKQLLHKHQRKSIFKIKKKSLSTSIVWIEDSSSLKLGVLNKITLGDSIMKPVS

Experiments:
[1] = target: T1, human GPCR142 (human, UniProt Q8TDU9 1-374); test: discussion of the binding results
[2] = target: T2, human GPCR135 (human, UniProt Q9NSD7 1-469); test: radioligand competition, COS-7 membranes
T2 sequence: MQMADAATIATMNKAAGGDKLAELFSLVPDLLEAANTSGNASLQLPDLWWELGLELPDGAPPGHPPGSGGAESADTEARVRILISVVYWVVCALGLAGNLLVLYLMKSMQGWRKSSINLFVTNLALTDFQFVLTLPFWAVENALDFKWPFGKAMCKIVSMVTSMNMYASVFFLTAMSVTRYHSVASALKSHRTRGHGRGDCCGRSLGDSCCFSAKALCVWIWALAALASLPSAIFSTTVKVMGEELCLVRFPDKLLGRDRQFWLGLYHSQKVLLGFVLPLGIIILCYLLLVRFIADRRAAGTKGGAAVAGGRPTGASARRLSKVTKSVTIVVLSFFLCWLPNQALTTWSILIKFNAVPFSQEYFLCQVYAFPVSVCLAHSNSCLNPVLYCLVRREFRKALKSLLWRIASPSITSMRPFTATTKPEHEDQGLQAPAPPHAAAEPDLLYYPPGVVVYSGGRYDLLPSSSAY

[3] = target: T1, human GPCR142; test: radioligand competition, COS-7 membranes
[4] = target: T3, human LGR7 (human, UniProt Q9HBX9 1-757); test: radioligand competition, live COS-7 cells with human LGR7
T3 sequence (looked up): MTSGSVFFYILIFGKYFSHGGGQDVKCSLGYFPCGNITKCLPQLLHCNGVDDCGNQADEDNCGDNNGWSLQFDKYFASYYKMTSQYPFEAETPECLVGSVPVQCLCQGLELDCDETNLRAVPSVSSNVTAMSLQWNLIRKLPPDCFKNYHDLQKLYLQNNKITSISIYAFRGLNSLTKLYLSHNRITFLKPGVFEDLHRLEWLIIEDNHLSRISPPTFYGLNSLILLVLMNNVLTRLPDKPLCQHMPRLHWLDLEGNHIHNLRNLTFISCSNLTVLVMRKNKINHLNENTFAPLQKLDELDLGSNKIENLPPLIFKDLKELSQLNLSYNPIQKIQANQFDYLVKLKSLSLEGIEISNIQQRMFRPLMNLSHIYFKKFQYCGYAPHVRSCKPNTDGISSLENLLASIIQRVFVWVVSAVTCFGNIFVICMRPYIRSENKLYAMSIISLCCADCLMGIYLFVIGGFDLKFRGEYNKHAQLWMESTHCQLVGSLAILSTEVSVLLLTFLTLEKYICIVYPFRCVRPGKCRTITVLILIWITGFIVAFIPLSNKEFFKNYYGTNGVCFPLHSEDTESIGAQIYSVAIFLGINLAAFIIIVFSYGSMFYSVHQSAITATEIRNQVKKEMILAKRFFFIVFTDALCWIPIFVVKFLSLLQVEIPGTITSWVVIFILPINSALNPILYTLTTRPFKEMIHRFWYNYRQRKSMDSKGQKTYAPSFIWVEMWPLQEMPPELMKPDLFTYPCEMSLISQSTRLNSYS

[5] = target: human LGR8 (human, UniProt Q8WXD0 1-754); test: competition with [125I]-INSL3, live COS-7 cells with human LGR8
[6] = target: T4, rat GPCR135 (rat); test: receptor autoradiography, 7 pM, rat brain: thalamus, paraventricular
T4 sequence: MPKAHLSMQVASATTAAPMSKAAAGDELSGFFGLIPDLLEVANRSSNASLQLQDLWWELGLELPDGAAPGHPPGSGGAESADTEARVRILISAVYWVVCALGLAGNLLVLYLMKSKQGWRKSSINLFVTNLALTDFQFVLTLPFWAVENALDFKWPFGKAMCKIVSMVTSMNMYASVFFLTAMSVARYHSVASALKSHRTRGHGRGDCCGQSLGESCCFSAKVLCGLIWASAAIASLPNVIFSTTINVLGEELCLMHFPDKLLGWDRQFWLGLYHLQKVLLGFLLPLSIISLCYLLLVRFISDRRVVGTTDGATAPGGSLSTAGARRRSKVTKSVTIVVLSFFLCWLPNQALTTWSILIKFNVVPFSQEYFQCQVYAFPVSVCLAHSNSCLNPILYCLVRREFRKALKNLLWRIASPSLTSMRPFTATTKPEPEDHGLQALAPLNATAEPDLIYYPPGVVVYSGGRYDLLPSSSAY

[7] = target: T4, rat GPCR135 (rat); test: receptor autoradiography, 7 pM, rat brain: cortex, somatosensory
[8] = target: T4, rat GPCR135 (rat); test: receptor autoradiography, 7 pM, rat brain: bed nucleus stria terminalis
[9] = target: T4, rat GPCR135 (rat); test: receptor autoradiography, 7 pM, rat brain: brain stem, spinal trigeminal tract
[10] = target: T4, rat GPCR135 (rat); test: receptor autoradiography, 7 pM, rat brain: anterior olfactory nucleus
[11] = target: T4, rat GPCR135 (rat); test: receptor autoradiography, 7 pM, rat brain: thalamus, centro medial
[12] = target: T4, rat GPCR135 (rat); test: receptor autoradiography, 7 pM, rat brain: septal region, lateral
[13] = target: T4, rat GPCR135 (rat); test: receptor autoradiography, 7 pM, rat brain: brain stem, dorsal raphe, dorsal part
[14] = target: T4, rat GPCR135 (rat); test: receptor autoradiography, 7 pM, rat brain: brain stem, interpeduncular nucleus
[15] = target: T4, rat GPCR135 (rat); test: receptor autoradiography, 7 pM, rat brain: hypothalamus, paraventricular nucleus
[16] = target: T4, rat GPCR135 (rat); test: receptor autoradiography, 7 pM, rat brain: amygdaloid body, lateral nucleus
[17] = target: T4, rat GPCR135 (rat); test: receptor autoradiography, 7 pM, rat brain: brain stem, periaqueductal gray area
[18] = target: T4, rat GPCR135 (rat); test: receptor autoradiography, 7 pM, rat brain: cortex, temporal
[19] = target: T4, rat GPCR135 (rat); test: receptor autoradiography, rat brain sections
[20] = target: T2, human GPCR135; test: direct radioligand binding, monolayer cells expressing recombinant GPCR135
[21] = target: T4, rat GPCR135 (rat); test: receptor autoradiography, 7 pM, rat brain: thalamus, centro lateral
[22] = target: T2, human GPCR135; test: discussion of the binding and functional results
[23] = target: T1, human GPCR142; test: discussion of the binding and functional results
[24] = target: T3, human LGR7; test: discussion of the binding and functional results
[25] = target: T4, rat GPCR135 (rat); test: receptor autoradiography, 5 pM tracer, rat brain sagittal sections
[26] = target: T2, human GPCR135; test: direct radioligand binding, 100 pM, COS-7 cells transfected with human GPCR135
[27] = target: T4, rat GPCR135 (rat); test: receptor autoradiography, 7 pM, rat brain: cortex, visual
[28] = target: T4, rat GPCR135 (rat); test: receptor autoradiography, 7 pM, rat brain: hippocampal formation, dentate gyrus
[29] = target: T4, rat GPCR135 (rat); test: receptor autoradiography, 7 pM, rat brain: hippocampal formation, CAB field (so in the source)
[30] = target: T4, rat GPCR135 (rat); test: receptor autoradiography, 7 pM, rat brain: habenula, medial
[31] = target: T4, rat GPCR135 (rat); test: receptor autoradiography, 7 pM, rat brain: cortex, motor
[32] = target: T4, rat GPCR135 (rat); test: receptor autoradiography, 7 pM, rat brain: hypothalamus, supraoptic nucleus
[33] = target: T4, rat GPCR135 (rat); test: receptor autoradiography, 7 pM, rat brain: amygdaloid body, medial nucleus
[34] = target: T4, rat GPCR135 (rat); test: receptor autoradiography, 7 pM, rat brain: brain stem, nucleus incertus
[35] = target: T4, rat GPCR135 (rat); test: receptor autoradiography, 7 pM, rat brain: amygdalohippocampal area
[36] = target: T4, rat GPCR135 (rat); test: receptor autoradiography, 7 pM, rat brain: cortex, piriform
[37] = target: T4, rat GPCR135 (rat); test: receptor autoradiography, 7 pM, rat brain: brain stem, superior colliculus
[38] = target: T4, rat GPCR135 (rat); test: receptor autoradiography, 7 pM, rat brain: olfactory bulb (density of binding sites)
[39] = target: T4, rat GPCR135 (rat); test: receptor autoradiography, 7 pM, rat brain: brain stem, inferior colliculus
[40] = target: T4, rat GPCR135 (rat); test: receptor autoradiography, 7 pM, rat brain: amygdaloid body, central nucleus

Measured: binding

B1: human relaxin-3/INSL6 chimeric polypeptide (R3/I6), mature (ligand)
chain: RAAPYGVRLCGREFIRAVIFTCGGSRWGYSEKCCLTGCTKEELSIAC
binds: [1] | [2] | [3]

B2: human relaxin-3/relaxin-2 chimeric polypeptide (R3/R2), mature (ligand)
chain: RAAPYGVRLCGREFIRAVIFTCGGSRWQLYSALANKCCHVGCTKRSLARFC
binds: [4] | [2] | [3] | [5]

B3: human relaxin-3/INSL5 chimeric polypeptide (R3/I5), mature (ligand)
chain: RAAPYGVRLCGREFIRAVIFTCGGSRWQDLQTLCCTDGCSMTDLSALC
not listed: [1] | [4] | [5]
binds: all other assays above

B4: human relaxin-3/INSL4 chimeric polypeptide (R3/I4), mature (ligand)
chain: RAAPYGVRLCGREFIRAVIFTCGGSRWFDPFCCEVICDDGTSVKLC
binds: [2] | [3]
